Data reported in PMC10374059.
Results are given in words; binding and its absence hold for the method and conditions named. Binding seen in cells or lysates may run through a third protein. Here binding means that the protein was enriched with, or labelled near, the bait; the list need not be complete.

Sequences of proteins named here, by UniProt entry; tags and fusion partners are left off. A change or cut given only in a name is not applied to a line headed by its entry.
UniProt Q57XN5: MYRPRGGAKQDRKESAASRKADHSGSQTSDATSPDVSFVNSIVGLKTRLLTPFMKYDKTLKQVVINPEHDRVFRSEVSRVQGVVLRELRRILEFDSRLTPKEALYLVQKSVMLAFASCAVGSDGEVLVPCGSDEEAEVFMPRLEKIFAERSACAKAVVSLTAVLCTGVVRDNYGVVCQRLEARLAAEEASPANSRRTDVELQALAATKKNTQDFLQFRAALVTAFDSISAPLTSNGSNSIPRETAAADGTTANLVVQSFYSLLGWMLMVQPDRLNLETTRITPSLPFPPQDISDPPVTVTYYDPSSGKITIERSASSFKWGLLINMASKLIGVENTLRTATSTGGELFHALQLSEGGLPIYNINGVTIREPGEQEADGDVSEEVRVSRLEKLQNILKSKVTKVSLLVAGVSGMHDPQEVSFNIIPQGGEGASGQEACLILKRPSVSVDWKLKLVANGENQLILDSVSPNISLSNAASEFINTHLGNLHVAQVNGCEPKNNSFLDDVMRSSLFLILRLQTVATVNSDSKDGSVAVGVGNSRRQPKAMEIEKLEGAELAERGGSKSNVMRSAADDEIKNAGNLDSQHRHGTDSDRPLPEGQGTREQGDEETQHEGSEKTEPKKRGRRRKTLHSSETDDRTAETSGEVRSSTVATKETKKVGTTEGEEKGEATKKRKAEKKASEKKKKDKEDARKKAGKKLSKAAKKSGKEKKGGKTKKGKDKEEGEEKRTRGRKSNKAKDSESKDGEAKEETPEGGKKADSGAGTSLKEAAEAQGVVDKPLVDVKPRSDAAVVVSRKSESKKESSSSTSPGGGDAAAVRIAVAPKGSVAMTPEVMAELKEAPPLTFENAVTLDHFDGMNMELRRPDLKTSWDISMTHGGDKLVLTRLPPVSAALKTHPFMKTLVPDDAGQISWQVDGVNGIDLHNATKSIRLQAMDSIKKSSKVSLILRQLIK
UniProt Q57WR0: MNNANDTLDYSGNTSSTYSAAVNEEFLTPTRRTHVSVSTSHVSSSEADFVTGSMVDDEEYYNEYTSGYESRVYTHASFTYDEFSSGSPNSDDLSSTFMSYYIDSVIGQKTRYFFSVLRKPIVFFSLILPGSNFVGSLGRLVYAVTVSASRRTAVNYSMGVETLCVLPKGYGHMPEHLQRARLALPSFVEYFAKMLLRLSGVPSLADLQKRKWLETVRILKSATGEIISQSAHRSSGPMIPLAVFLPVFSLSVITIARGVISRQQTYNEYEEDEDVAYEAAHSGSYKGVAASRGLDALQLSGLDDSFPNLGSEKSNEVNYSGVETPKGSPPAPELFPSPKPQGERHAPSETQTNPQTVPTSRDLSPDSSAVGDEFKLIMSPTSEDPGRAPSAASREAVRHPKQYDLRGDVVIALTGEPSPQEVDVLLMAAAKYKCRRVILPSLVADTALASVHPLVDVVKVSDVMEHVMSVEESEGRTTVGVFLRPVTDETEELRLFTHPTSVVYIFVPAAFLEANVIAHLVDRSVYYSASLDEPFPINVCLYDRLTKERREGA
UniProt Q581S0: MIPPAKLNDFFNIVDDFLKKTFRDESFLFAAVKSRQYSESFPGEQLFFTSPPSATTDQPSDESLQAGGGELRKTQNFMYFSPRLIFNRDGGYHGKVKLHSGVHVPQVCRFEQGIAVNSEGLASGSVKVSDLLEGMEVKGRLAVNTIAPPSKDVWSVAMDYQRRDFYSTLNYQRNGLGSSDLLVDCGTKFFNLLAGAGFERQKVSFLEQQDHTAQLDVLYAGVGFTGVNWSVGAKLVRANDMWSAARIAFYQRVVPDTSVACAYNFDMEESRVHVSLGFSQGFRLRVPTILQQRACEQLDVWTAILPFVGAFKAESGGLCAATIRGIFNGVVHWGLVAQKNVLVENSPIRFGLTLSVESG
UniProt Q381H4: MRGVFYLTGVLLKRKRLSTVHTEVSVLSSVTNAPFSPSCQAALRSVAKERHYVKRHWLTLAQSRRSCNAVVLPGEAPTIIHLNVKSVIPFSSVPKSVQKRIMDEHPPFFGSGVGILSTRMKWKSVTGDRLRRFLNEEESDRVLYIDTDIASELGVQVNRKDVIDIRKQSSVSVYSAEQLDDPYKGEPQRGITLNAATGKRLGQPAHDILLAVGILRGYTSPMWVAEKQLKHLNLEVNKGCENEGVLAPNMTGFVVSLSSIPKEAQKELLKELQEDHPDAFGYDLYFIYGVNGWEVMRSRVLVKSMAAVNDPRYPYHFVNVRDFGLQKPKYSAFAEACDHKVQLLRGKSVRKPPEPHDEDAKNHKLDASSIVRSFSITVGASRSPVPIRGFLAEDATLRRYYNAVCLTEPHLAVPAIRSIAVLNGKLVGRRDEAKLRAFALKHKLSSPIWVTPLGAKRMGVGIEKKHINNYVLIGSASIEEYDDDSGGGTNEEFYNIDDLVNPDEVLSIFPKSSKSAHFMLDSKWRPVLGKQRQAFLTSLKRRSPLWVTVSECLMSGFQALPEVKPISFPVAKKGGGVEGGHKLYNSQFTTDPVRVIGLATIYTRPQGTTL
UniProt Q57W28: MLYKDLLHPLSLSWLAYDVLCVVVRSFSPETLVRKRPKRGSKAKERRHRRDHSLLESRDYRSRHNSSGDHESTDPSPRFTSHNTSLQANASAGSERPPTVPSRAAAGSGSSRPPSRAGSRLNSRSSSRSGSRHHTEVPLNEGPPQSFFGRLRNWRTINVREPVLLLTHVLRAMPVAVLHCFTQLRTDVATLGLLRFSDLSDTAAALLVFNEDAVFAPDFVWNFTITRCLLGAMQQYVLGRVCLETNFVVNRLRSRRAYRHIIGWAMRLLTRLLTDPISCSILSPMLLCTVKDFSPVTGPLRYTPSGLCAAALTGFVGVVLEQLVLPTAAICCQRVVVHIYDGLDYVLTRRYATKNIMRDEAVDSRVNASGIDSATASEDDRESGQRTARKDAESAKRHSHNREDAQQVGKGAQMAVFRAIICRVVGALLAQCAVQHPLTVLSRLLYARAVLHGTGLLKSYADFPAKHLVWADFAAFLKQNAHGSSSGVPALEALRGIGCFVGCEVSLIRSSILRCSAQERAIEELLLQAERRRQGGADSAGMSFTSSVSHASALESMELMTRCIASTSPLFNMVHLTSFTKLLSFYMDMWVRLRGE

Target: YFP tagged version of TAC102 (T. brucei) (UniProt Q57XN5)
Assay: affinity purification with mass spectrometry; YFP-TAC102 from PCF cells; cytoskeletons extracted and sonicated, 0.2 M NaCl step, pellet in 0.05% Nonidet P-40 in PBS sonicated again, dynabeads crosslinked with anti-GFP antibody; eluate against flow-through

Substance | binding
TAC60 (from UniProt Q57WR0) | binds
TAC40 (from UniProt Q581S0) | binds
TbKAP68 (Tb927.11.16120), endogenous (from UniProt Q381H4) | binds
TAC65 (from UniProt Q57W28) | binds
